Paper PMC3628100
Results are given in words; binding and its absence hold for the method and conditions named. Binding seen in cells or lysates may run through a third protein. Binding can be weak; no strength is given.

Experiments:
[1] = target: T1, SREBP1 (sterol regulatory element binding protein 1), endogenous in rat cortical neurons (rat (endogenous in primary cortical neurons)) (UniProt P56720); test: co-IP; lysates of primary rat cortical neurons (control or virus-infected), 500 µg protein, precipitated with 2 µg anti-N-terminus SREBP1 antibody H-160 overnight at 4°C, protein A-sepharose; 25 mM Tris pH 6.8, 0.5% Triton X-100, 0.5% Nonidet P-40; Western blot
T1 sequence: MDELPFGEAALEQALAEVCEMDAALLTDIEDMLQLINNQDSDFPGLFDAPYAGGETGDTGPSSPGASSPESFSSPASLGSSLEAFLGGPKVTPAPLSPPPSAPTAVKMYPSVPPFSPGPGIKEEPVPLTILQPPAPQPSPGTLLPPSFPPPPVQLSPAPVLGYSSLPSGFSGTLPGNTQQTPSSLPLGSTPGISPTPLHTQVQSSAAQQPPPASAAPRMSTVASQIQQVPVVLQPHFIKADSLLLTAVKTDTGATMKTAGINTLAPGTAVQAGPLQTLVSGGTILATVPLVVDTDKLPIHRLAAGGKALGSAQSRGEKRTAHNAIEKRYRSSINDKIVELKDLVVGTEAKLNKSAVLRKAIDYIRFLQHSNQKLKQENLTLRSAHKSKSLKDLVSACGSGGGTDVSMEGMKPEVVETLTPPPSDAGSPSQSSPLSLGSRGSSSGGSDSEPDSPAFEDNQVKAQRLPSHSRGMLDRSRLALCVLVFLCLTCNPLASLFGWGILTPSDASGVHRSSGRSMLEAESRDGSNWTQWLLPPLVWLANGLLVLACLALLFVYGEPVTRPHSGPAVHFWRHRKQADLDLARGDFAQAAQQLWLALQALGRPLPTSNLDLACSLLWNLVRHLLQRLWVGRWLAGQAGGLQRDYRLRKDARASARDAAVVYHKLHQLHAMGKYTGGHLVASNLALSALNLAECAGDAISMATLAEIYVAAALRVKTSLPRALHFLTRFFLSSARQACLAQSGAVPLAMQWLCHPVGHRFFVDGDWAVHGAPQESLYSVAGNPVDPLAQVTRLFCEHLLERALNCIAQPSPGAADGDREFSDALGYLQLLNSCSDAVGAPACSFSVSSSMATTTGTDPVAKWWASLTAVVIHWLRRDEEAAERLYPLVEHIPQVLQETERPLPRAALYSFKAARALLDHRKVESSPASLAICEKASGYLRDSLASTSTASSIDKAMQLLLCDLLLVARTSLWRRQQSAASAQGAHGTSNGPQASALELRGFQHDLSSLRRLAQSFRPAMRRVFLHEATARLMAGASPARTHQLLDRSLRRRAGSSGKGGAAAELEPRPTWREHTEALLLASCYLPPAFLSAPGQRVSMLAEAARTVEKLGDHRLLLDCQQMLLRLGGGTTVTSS

[2] = target: T1, SREBP1 (sterol regulatory element binding protein 1), endogenous in rat cortical neurons (rat (endogenous in primary cortical neurons)); test: co-IP; Supporting Information Fig 7; cells and precipitating antibody not given

Substance	binding [1]	binding [2]
C99, the β-cleaved C-terminal fragment of hAPP fused to the APP signal peptide sequence (human) (domain or fragment)	binds	
APLP1 (APP-like protein 1)		binds
human APP695 without its C-terminal region (APPΔC) (domain or fragment)	binds	
